Assay results from PubChem BioAssay AID488837 (National Center for Advancing Translational Sciences (NCATS), 2010).
About 20 (0.006%) of roughly 330,000 compounds were called active. The shares of active, inactive and inconclusive entries below differ from those in the screen. The call rests on the fitted dose curve; in most records, active means well fitted inhibition curve with a large enough effect; inconclusive means small, poorly fitted or top-dose-only effect, or effect the other way; inactive means flat fitted curve, though single readings scatter. Potencies beside an inconclusive call are fits to weak or partial responses and may not hold up.

By UniProt entry, the sequences of proteins in these tests, tags left out. Where a name states a change or a piece, a line headed by the entry shows the natural chain unless it says otherwise.
UniProt O00167: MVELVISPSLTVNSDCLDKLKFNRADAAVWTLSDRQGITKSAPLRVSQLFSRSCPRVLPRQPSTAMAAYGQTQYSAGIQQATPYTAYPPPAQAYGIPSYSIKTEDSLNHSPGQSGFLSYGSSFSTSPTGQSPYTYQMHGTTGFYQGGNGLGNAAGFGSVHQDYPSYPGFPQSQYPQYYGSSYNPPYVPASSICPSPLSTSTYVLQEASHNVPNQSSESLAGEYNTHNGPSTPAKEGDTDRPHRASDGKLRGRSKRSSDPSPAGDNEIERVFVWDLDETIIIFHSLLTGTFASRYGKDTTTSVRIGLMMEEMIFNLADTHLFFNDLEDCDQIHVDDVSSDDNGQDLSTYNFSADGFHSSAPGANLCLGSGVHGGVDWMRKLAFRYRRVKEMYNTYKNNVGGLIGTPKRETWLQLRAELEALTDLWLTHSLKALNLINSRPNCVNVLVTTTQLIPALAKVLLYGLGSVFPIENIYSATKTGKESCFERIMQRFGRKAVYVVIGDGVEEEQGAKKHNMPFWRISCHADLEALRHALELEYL

What follows are molecules tested against Protein phosphatase EYA2 (Homo sapiens) (UniProt O00167) (assay: qHTS Assay for Inhibitors of the Phosphatase Activity of Eya2). Conditions: recombinant Eya2, OMFP fluorescence dephosphorylation (OMFP is methylfluorescein phosphate); activity, negative = inhibition: at 76.9 µM (top of the series) unless noted.
How it was run: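 Eya2 protein (added as 0.2 uM solution) was preincubated with compound for 10 min at ambient temperature in 50 mM HEPES pH 7.5, 50 mM NaCl, 5 uM MgCl2, 0.05% BSA, 1 mM DTT. OMFP (added at 50 uM) then reacted 10 min; fluorescence read at 485/525 nm.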
On the % scale 0 is the no-effect control and ±100 the full control effect; potency means the concentration at half of the fitted maximal effect.

**Q.** Which Potency does the source give for Cc1ccc(C(=O)c2oc3nc(C)cc(C)c3c2N)cc1 here?
**A.** inconclusive: 22.4 µM [inhibitor, single point]

**Q.** With Cc1ccnc(N/C=C(\C#N)c2nc(-c3cccc(Br)c3)cs2)c1 as the molecule, how does the activity, negative = inhibition read?
**A.** inconclusive: 47.8% [activator]

**Q.** CCN(CC)S(=O)(=O)c1ccc(O)c(C(=O)OCC(=O)Nc2cc(C)c(C)cc2[N+](=O)[O-])c1 was tested. Which Potency did it give?
**A.** inconclusive: 100 µM [inhibitor, single point]

**Q.** For O=C(Nc1nnc(C23CC4CC(CC(C4)C2)C3)s1)c1ccc(N2C(=O)CCC2=O)cc1, which Potency is on record?
**A.** inconclusive: 14.1 µM [inhibitor, single point]

**Q.** How did the activity, negative = inhibition turn out when c1ccc(CNCCC(Cc2ccccc2)c2ccco2)cc1 (stereo unspecified) was run?
**A.** inconclusive: -30.7% [inhibitor]

**Q.** CCCN1CCc2c(sc3nc(SCC)n(-c4ccc(OC)cc4)c(=O)c23)C1 was tested. Which Potency did it give?
**A.** inconclusive: 22.4 µM [inhibitor, single point]

**Q.** COC(=O)Nc1nnc(COc2ccccc2)s1 was tested. Which Potency did it give?
**A.** inconclusive: 89.1 µM [inhibitor, single point]

**Q.** Which Potency does the source give for O=C(c1ccccc1)N1CCN(CCc2ccccc2)CC1 here?
**A.** inactive

**Q.** O=C(NCCc1ccc([N+](=O)[O-])cc1)c1ccccc1 was tested. Which Potency did it give?
**A.** inconclusive: 50.1 µM [inhibitor, single point]

**Q.** For Cc1cccc(NS(=O)(=O)c2csc(C(N)=O)c2)c1, which Potency is on record?
**A.** inconclusive: 100 µM [inhibitor, single point]

**Q.** Which Potency does the source give for CCCc1nnc(NC(=O)OCC)s1 here?
**A.** inconclusive: 22.4 µM [inhibitor, single point]

**Q.** O=C(C1COc2ccccc2O1)N1CCOCC1 (stereo unspecified) was tested. Which Potency did it give?
**A.** inactive

**Q.** How did the Potency turn out when COc1ccc2nc(/N=C/c3c(C)[nH]n(-c4ccc(C)cc4C)c3=O)sc2c1 was run?
**A.** inactive

**Q.** Cc1ccc(CNC(=O)CCCN2C(=S)NC(C)(C)CC2C)cc1 (stereo unspecified) was tested. Which Potency did it give?
**A.** inconclusive: 89.1 µM [inhibitor, single point]

**Q.** Which Potency does the source give for CCn1c(SCC#N)nc2ccccc2c1=O here?
**A.** inconclusive: 141 µM [inhibitor, partial curve, poor fit]

**Q.** How did the activity, negative = inhibition turn out when COc1ccc(NC(=O)COC(=O)CC2CCCC2)cc1Cl was run?
**A.** inconclusive: -46.3% [inhibitor]

**Q.** Which Potency does the source give for COc1ccc(C(=O)/C=C/Sc2nc3ccccc3o2)cc1 here?
**A.** inconclusive: 100 µM [inhibitor, single point]

**Q.** CCN1/C(=C\c2ccc3ccccc3[n+]2CC)Sc2cc(C)ccc21 was tested. Which Potency did it give?
**A.** inconclusive: 79.4 µM [activator, partial curve]

**Q.** COc1ccc(NC(=O)CSc2nc3ccccc3nc2N2CCOCC2)c(OC)c1 was tested. Which Potency did it give?
**A.** inconclusive: 22.4 µM [inhibitor, single point]

**Q.** How did the Potency turn out when COCCNC(=O)CN1C(=O)COc2ccc(S(=O)(=O)N3CCCCCC3)cc21 was run?
**A.** inconclusive: 100 µM [inhibitor, single point]

**Q.** With CCc1cc2c(=O)c(Oc3ccccc3F)c(C)oc2c(CN(C)C)c1O as the molecule, how does the Potency read?
**A.** inconclusive: 25.1 µM [inhibitor, single point]

**Q.** O=C(Nc1ccccc1F)Nc1cccc2ccc(O)cc12 was tested. Which Potency did it give?
**A.** inconclusive: 22.4 µM [inhibitor, single point]

**Q.** With CCOc1cc(/C=N/NC(=O)c2cccc([N+](=O)[O-])c2)ccc1OS(=O)(=O)c1ccccc1 as the molecule, how does the Potency read?
**A.** inconclusive: 28.2 µM [inhibitor, partial curve, poor fit]

**Q.** CCc1ccc(Nc2c([N+](=O)[O-])c(=O)oc3ccccc23)cc1 was tested. Which activity, negative = inhibition did it give?
**A.** inconclusive: -35.7% [inhibitor]

**Q.** COc1ccccc1-n1cc(C(=O)NCC(=O)N2CCN(c3ccccn3)CC2)c2ccccc2c1=O was tested. Which Potency did it give?
**A.** inconclusive: 28.2 µM [inhibitor, partial curve, poor fit]

**Q.** How did the Potency turn out when CN1CCN(C(=O)c2ccc(COc3ccc(Cl)cc3Cl)cc2)CC1 was run?
**A.** inactive

**Q.** With COc1ccc(C(=O)NN/C(C)=C/C(=O)C(F)(F)C(F)(F)C(F)(F)F)cc1 as the molecule, how does the Potency read?
**A.** inactive

**Q.** Cc1cnc(NC(=O)Nc2ccc(Cl)cc2)s1 was tested. Which Potency did it give?
**A.** inactive

**Q.** How did the Potency turn out when Cc1ccc(NC(=O)CCN2C(=O)OC(C)(C)C2(C)O)cc1 (stereo unspecified) was run?
**A.** inconclusive: 126 µM [inhibitor, single point]

**Q.** With C[C@@H](CN1CCC(Cc2ccccc2)CC1)[C@@H](O)c1ccc(O)cc1 as the molecule, how does the Potency read?
**A.** inactive

**Q.** Which Potency does the source give for COc1ccc(-c2cc(=O)oc3cc(OC(C)C(=O)O)ccc23)cc1 (stereo unspecified) here?
**A.** inactive

**Q.** Which Potency does the source give for Cc1ccc(S(=O)(=O)Oc2ccc3c(c2)O/C(=C\c2cccnc2)C3=O)cc1 here?
**A.** inactive

**Q.** Which Potency does the source give for Cc1cccc(NC(=S)NNC(=O)COc2ccc(Cl)cc2Cl)c1 here?
**A.** inactive

**Q.** Which Potency does the source give for COc1ccc(-c2nc(=S)[nH][nH]2)cc1OC here?
**A.** inconclusive: 22.4 µM [inhibitor, single point]

**Q.** With CC(C)=CCC1=C(OCC(=O)O)C(=O)c2ccccc2C1=O as the molecule, how does the Potency read?
**A.** inactive

**Q.** With CCOC(=O)c1cccc(NC(=O)C(C)N2C(=O)c3ccccc3C2=O)c1 (stereo unspecified) as the molecule, how does the activity, negative = inhibition read?
**A.** inconclusive: 45% [activator] [at 15.4 µM]

**Q.** How did the Potency turn out when COc1ccc(NS(=O)(=O)CC(C)C)c(OC)c1 was run?
**A.** inactive

**Q.** How did the Potency turn out when Cc1cccc(NC(=O)CN2C(=O)c3ccccc3C2=O)c1C was run?
**A.** inconclusive: 398 µM [inhibitor, single point]

**Q.** How did the Potency turn out when O=C(CSc1cccc[n+]1[O-])NC1CCCCCCC1 was run?
**A.** inconclusive: 100 µM [inhibitor, single point]

**Q.** For COc1ccc(NC(=S)N/N=C/c2ccc(F)cc2)cc1OC, which Potency is on record?
**A.** inconclusive: 20 µM [inhibitor, single point]

**Q.** For O=C(NCCCn1ccnc1)/C(=C\c1ccccc1Cl)NC(=O)c1ccccc1, which Potency is on record?
**A.** inactive

**Q.** With O=C(O)/C=C/C(=O)Nc1ccc(O)cc1 as the molecule, how does the Potency read?
**A.** inactive

**Q.** How did the Potency turn out when O=[N+]([O-])c1cc(-c2cnc3ccccc3n2)ccc1Oc1ccc(Br)cc1 was run?
**A.** inconclusive: 22.4 µM [inhibitor, single point]

**Q.** For Cc1ccccc1NC(=O)CSc1nnc(-c2ccco2)n1N, which Potency is on record?
**A.** inactive

**Q.** How did the Potency turn out when O=[N+]([O-])c1cc(C(F)(F)F)cc([N+](=O)[O-])c1NCCNC(=S)Nc1cccc(F)c1 was run?
**A.** inconclusive: 79.4 µM [inhibitor, single point]

**Q.** Which Potency does the source give for CN1C(c2ccccc2)CC(=NO)CC1c1ccccc1 (stereo unspecified) here?
**A.** inconclusive: 25.1 µM [inhibitor, single point]

**Q.** How did the Potency turn out when COc1cc(OC)c(NC(=O)c2ccc3c(SCC(=O)O)c4c(nc3c2)CCCC4)cc1Cl was run?
**A.** inconclusive: 22.4 µM [inhibitor, single point]

**Q.** How did the Potency turn out when CC(C)(C)OC(=O)NCCCCCc1nnc(SCc2ccccc2F)o1 was run?
**A.** inconclusive: 20 µM [inhibitor, partial curve]

**Q.** Which Potency does the source give for COc1ccc(-c2nc(CS(=O)(=O)CC(=O)NCc3ccccc3Br)c(C)o2)cc1 here?
**A.** inconclusive: 25.1 µM [inhibitor, single point]

**Q.** For CCCOCCc1nnc(N)s1, which Potency is on record?
**A.** inconclusive: 22.4 µM [inhibitor, single point]

**Q.** How did the Potency turn out when CCCCCCCCCCCCCCCC[n+]1cccc(C(=O)N(CC)CC)c1 was run?
**A.** inconclusive: 70.8 µM [inhibitor, single point]

**Q.** With COC(=O)[C@@H](C)NC(=O)c1ccc2oc(CCc3ccccc3)nc2c1 as the molecule, how does the Potency read?
**A.** inconclusive: 20 µM [inhibitor, single point]

**Q.** For COc1ccc2cc(-c3cc(C(=O)O)c4ccccc4n3)ccc2c1, which Potency is on record?
**A.** inactive

**Q.** With O=C(c1cc2ccccc2c(=O)o1)N1CCCc2ccccc21 as the molecule, how does the Potency read?
**A.** inactive

**Q.** CCCCc1ccc(NC(=S)N2CCN(c3ncccn3)CC2)cc1 was tested. Which Potency did it give?
**A.** inconclusive: 100 µM [inhibitor, partial curve]

**Q.** With COc1ccc(NC(=O)CCCNS(=O)(=O)c2cccs2)cc1 as the molecule, how does the Potency read?
**A.** inactive

**Q.** CCn1c(=O)c2sccc2n(Cc2ccc(C)cc2)c1=O was tested. Which Potency did it give?
**A.** inconclusive: 20 µM [inhibitor, single point]

**Q.** Which Potency does the source give for Cc1ccccc1C(=O)Nc1nnc(S(=O)(=O)N(C)Cc2ccco2)s1 here?
**A.** inconclusive: 22.4 µM [inhibitor, single point]

**Q.** Which Potency does the source give for CC(CCN1CCN(c2ccccn2)CC1)c1ccccc1 (stereo unspecified) here?
**A.** inconclusive: 22.4 µM [inhibitor, single point]

**Q.** Which Potency does the source give for COC(=O)c1oc2ccccc2c1NC(=O)/C=C/C(=O)O here?
**A.** inconclusive: 126 µM [inhibitor, partial curve, poor fit]

**Q.** CC(NC(=O)CCSc1nc(-c2ccc3c(c2)OCO3)cc(C(F)(F)F)n1)c1ccccc1 (stereo unspecified) was tested. Which Potency did it give?
**A.** inconclusive: 25.1 µM [inhibitor, single point]

**Q.** Which Potency does the source give for Cc1ccnc(NS(=O)(=O)c2ccc(NS(=O)(=O)c3cc(Cl)ccc3Cl)cc2)n1 here?
**A.** inactive

**Q.** Which Potency does the source give for O=C(CCN1C(=O)c2ccccc2C1=O)Nc1cccc(O)c1 here?
**A.** inconclusive: 28.2 µM [inhibitor, single point]

**Q.** Which activity, negative = inhibition does the source give for CNS(=O)(=O)c1cn(CC(=O)N(C)Cc2ccccc2)cc1S(=O)(=O)NC here?
**A.** inconclusive: -31% [inhibitor]

**Q.** Which Potency does the source give for COc1ccc(Nc2cc(=O)n(-c3ccccc3)c3c2c(=O)n(C)c(=O)n3C)cc1 here?
**A.** inconclusive: 224 µM [inhibitor, partial curve, poor fit]

**Q.** How did the Potency turn out when CCN1CCN(C(=O)NS(=O)(=O)c2ccc(C)cc2)CC1 was run?
**A.** inconclusive: 20 µM [inhibitor, single point]

**Q.** For N#Cc1c(-c2c(Cl)cccc2Cl)noc1/C=C/Nc1ccc(C(=O)O)cc1, which Potency is on record?
**A.** inconclusive: 708 µM [inhibitor, partial curve, poor fit]

**Q.** Which Potency does the source give for Cc1nc(Cl)cc(N/N=C/c2ccc(O)cc2)n1 here?
**A.** inconclusive: 89.1 µM [inhibitor, single point]

**Q.** For CCn1cc(C(=O)N[C@@H](C)C(=O)NCCCO)c(=O)c2cc3c(cc21)OCO3, which Potency is on record?
**A.** inconclusive: 100 µM [inhibitor, single point]

**Q.** For CN(CCOc1ccccc1)CC(=O)Nc1ccc(S(=O)(=O)N2CCCC2)cc1, which Potency is on record?
**A.** inconclusive: 89.1 µM [inhibitor, single point]

**Q.** C=CCS(=O)(=O)N1CCCC(N2CCN(c3ccccc3OC)CC2)C1 (stereo unspecified) was tested. Which Potency did it give?
**A.** inconclusive: 17.8 µM [inhibitor, single point]
